At least one structure is not confirmed: it was looked up by name or label, or the drawing left a doubt.
Assay: Particle size of the precipitated powder by Malvern particle sizer
Format: physicochemical
[1] = Comparative Example: 7.5 m/s TAA solution, 20 m/s water, no anti-pulsing devices
[2] = Example 1: TAA solution stream 30 m/s, water stream 79 m/s, pumps with anti-pulsing device, 0.5 mm cell

CC1(C)O[C@@H]2C[C@H]3[C@@H]4CCC5=CC(=O)C=C[C@]5(C)[C@@]4(F)[C@@H](O)C[C@]3(C)[C@]2(C(=O)CO)O1 [TAA, triamcinolone acetonide]
median particle size of the powder [1]: 3.3 micrometer | size range of 80% of the particles [1]: 0.8 to 7.2 micrometer | median particle size of the powder [2]: 1.9 micrometer | size range of 80% of the particles [2]: 0.8 to 4.4 micrometer | Median Particle Size (Example 2: relative stream velocity 30 ms^-1, anti-pulsing No): 3.9 Micrometer | Median Particle Size (Example 2: relative stream velocity 30 ms^-1, anti-pulsing Yes): 2.2 Micrometer | Median Particle Size (Example 2: relative stream velocity 80 ms^-1, anti-pulsing No): 3.7 Micrometer | Median Particle Size (Example 2: relative stream velocity 80 ms^-1, anti-pulsing Yes): 2.0 Micrometer
